From paper PMC8384837
Numbering of substitutions follows the chain as printed. The list shows a part of the results. For some of these results: At the low end of the ranking the order means little.

What was measured:
Conditions in all cases: yeast three-hybrid, YBZ-1, SC-Leu-His + 0.5 mM 3-AT, 4 days
[1] = target: T1, PUM1 PUF domain R1-QFR R2-VFQ R7-NPG S863Q + R864F + Q867R + N899V + Y900F + S1079N + N1080P + E1083G (UniProt Q14671)
T1 sequence: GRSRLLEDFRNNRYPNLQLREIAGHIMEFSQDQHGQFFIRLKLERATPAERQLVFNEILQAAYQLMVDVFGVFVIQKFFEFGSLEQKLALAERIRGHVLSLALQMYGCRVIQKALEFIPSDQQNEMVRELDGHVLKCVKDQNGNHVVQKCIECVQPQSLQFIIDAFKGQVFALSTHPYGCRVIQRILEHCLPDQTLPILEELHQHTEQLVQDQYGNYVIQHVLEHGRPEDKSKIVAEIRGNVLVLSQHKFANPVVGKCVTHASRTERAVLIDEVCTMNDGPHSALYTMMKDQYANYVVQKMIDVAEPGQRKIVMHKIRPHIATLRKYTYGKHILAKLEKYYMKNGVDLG

[2] = target: T2, PUM1 PUF domain R2-VFQ R3-THE R4-TFR N899V + Y900F + C935T + R936H + Q939E + N971T + H972F + Q975R (UniProt Q14671)
T2 sequence: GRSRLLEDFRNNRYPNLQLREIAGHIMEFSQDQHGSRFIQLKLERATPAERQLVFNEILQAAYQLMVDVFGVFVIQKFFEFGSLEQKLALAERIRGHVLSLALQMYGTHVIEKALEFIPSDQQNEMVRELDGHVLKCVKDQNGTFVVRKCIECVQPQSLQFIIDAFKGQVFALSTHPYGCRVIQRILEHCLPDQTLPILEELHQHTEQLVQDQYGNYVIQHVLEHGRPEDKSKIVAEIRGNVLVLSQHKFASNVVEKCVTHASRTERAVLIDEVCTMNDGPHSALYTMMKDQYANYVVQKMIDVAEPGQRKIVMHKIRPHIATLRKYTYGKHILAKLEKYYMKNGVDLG

[3] = target: T3, PUM1 PUF domain R3-THE R4-TFR C935T + R936H + Q939E + N971T + H972F + Q975R (UniProt Q14671)
T3 sequence: T2 sequence with V72N, F73Y

[4] = target: T4, PUM1 PUF domain R3-THE R4-TFR R7-NPG C935T + R936H + Q939E + N971T + H972F + Q975R + S1079N + N1080P + E1083G (Homo sapiens) (UniProt Q14671)
T4 sequence: T2 sequence with V72N, F73Y, S252N, N253P, E256G

Sequence | binding signal (log2 enrichment (interaction score)) [1] | binding signal (log2 enrichment (interaction score)) [2] | binding signal (log2 enrichment (interaction score)) [3] | binding signal (log2 enrichment (interaction score)) [4]
GGCUAGAACUAGUGGAUCCCCCGGCGCCCGGCGGCUCGAGCCCGGGUAAGGUUGAGAAGUCUGCAUGCCGCCGGGCGCCAUGCCUGCAGGUCGACUCUAGAAAACAUG | -6.01 | -5.36 | -6.44 | –
GGCUAGAACUAGUGGAUCCCCCGGCGCCCGGCGGCUCGAGCCCGGGUAAGUAUCCGUAGUCUGCAUGCCGCCGGGCGCCAUGCCUGCAGGUCGACUCUAGAAAACAUG | -5.44 | -5.77 | -6.87 | -1.1
